PubChem BioAssay AID602196 | INSERM, 2012
Screen: 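Modifiers of cisplatin sensitivity in A549 cells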. Cells: human A549 lung cancer cells. Reagent: siRNA pair against human genes. Timing: 48 h transfection before cisplatin; time from cisplatin to read-out not stated. Treatment: cisplatin at a dose killing half of control-siRNA cells; exact dose and duration not given. Measurement: 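Shift in cisplatin death relative to control siRNA, from -50 (all cells die) to +50 (no cells die); siRNAs harmful on their own scored 0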. Direction: two-siRNA summed score (-2 to +2): higher = both siRNAs protect from cisplatin killing; -2 means both sensitise; mean protection from cisplatin (shift in death) and protection from cisplatin (shift in death), siRNA C and protection from cisplatin (shift in death), siRNA D: higher = protection from cisplatin killing. Rule for the call: 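siRNAs harmful alone (LDH or WST-1) get 0; others get +1 for less and -1 for more cisplatin killing; genes are active when the two siRNAs give the same sign, summing to ±2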. Meaning of the calls: active = both siRNAs shift cisplatin killing the same way; inactive = no consistent shift, or siRNA harmful alone.
Here is one part, drawn at random, of about 23,000 reagents tested. 455 of them (2%) count as active. 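Active includes both protection and sensitisation; some change values fall well beyond the stated -50 to +50 range.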 No sequences are given here. The record does not give: the amount of reagent.

gene,two-siRNA summed score (-2 to +2),mean protection from cisplatin (shift in death) (%),"protection from cisplatin (shift in death), siRNA C (%)","protection from cisplatin (shift in death), siRNA D (%)",outcome
FSD1,0,45.5,10,81,inactive
C5,0,-5.5,-9.9,-1.2,inactive
TRAM2,0,1.8,-0.7,4.3,inactive
SMAP2,0,-7.4,-1.9,-13,inactive
TIMMDC1,0,1.2,5,-2.6,inactive
FLJ22588,0,5.9,3.4,8.4,inactive
ASAP2,1,15.1,11.9,18.2,inactive
CLCA4,-1,-22.8,1.2,-46.8,inactive
DPT,1,11.7,23.3,0.1,inactive
LMLN,0,-5,-10.2,0.1,inactive
TRAF3IP3,0,-2.5,-8.9,4,inactive
JPT2,1,6.8,13.2,0.3,inactive
TPT1P8,0,3,-1.7,7.7,inactive
LOC390282,0,15.3,33.3,-2.7,inactive
LOC389748,0,4.4,-0.1,8.9,inactive
OR52B2,1,8,-7.4,23.4,inactive
TIGD6,0,5.8,2.4,9.3,inactive
MORC2-AS1,0,6.1,14.2,-1.9,inactive
LOC440609,0,9.6,-0.2,19.4,inactive
YKT6,1,15.8,21.7,9.9,inactive
LOC440801,0,6.8,1.3,12.2,inactive
DOK1,-1,-0.1,12,-12.1,inactive
RADIL,1,10,27.2,-7.2,inactive
NCDN,0,5.7,8.9,2.4,inactive
RPUSD3,0,-11.8,-4.1,-19.5,inactive
KHK,1,17.5,16.5,18.5,inactive
ATP2B4,-1,-0.9,-6.8,4.9,inactive
SMIM3,0,9.2,11,7.4,inactive
MRPL27,0,23.7,11.2,36.2,inactive
BUB3,0,-2.5,-10.1,5.1,inactive
NCAM1,0,-5.3,-4.9,-5.7,inactive
LOC387825,0,12.1,10.8,13.5,inactive
PFDN4,0,7.8,7.6,8,inactive
TTC5,0,3.1,4.8,1.3,inactive
CDX1,1,5.9,-4.4,16.3,inactive
LEO1,0,0.9,3.2,-1.5,inactive
LOC387781,1,6.3,16,-3.4,inactive
ST18,0,9.9,11.6,8.3,inactive
LOC344332,0,3.8,-2.8,10.4,inactive
LOC391773,1,15.5,13.5,17.5,inactive
TMEM67,0,9,12.2,5.7,inactive
VEPH1,0,1.6,15.1,-11.9,inactive
COL5A2,0,4.8,20,-10.4,inactive
CXXC5,0,6.5,2,11.1,inactive
SLC25A22,0,-8.4,-7.6,-9.2,inactive
GAGE1,0,-1.2,-7.4,5,inactive
ST8SIA5,0,5.6,1,10.3,inactive
UBE2B,-1,-1.8,4.2,-7.8,inactive
LOC144448,0,16.5,12.3,20.7,inactive
GRPEL2,0,6.9,5.5,8.2,inactive
FAM111B,0,2.3,3.8,0.8,inactive
BRF2,0,-6.6,0.3,-13.6,inactive
XAB2,0,0.1,-12,12.2,inactive
MFSD11,0,3,-7,13,inactive
H3-3A,0,15.4,-4.1,34.9,inactive
PYGO2,0,2.1,6.8,-2.6,inactive
ACSS3,0,0,-0.1,0.1,inactive

9 entries already listed, sorted by “mean protection from cisplatin (shift in death) (%)”, low to high:
gene,two-siRNA summed score (-2 to +2),mean protection from cisplatin (shift in death) (%),"protection from cisplatin (shift in death), siRNA C (%)","protection from cisplatin (shift in death), siRNA D (%)",outcome
RPUSD3,0,-11.8,-4.1,-19.5,inactive
NCAM1,0,-5.3,-4.9,-5.7,inactive
BUB3,0,-2.5,-10.1,5.1,inactive
ATP2B4,-1,-0.9,-6.8,4.9,inactive
PFDN4,0,7.8,7.6,8,inactive
SMIM3,0,9.2,11,7.4,inactive
LOC387825,0,12.1,10.8,13.5,inactive
KHK,1,17.5,16.5,18.5,inactive
MRPL27,0,23.7,11.2,36.2,inactive
